Assay results from US20060292213A1, “Enoximone formulations and their use in the treatment of PDE-III mediated diseases” (Myogen, Inc., priority 2004, published 2006).

Tested on: normal human volunteers
Experiment: Renal function and plasma volume in normal human volunteers (Example 4)
Conditions: single I.V. dose 2.5 mg/kg, then 200 mg t.i.d. for 5 days

CSc1ccc(C(=O)c2[nH]c(=O)[nH]c2C)cc1 [Enoximone, 1,3-Dihydro-4-methyl-5-[4-(methylthio)benzoyl]-2H-imidazol-2-one]
change of plasma volume from baseline: 327 ± 135.9 mL
plasma volume after treatment (RISA method) (baseline 1573+/−149.5 ml): 1900 ± 79.9 mL
